Drawing on publication PMC10030765, this text covers binding for two molecules.

Amino acid sequences for entries named in this document (tags omitted). Residues count along the entry.
UniProt Q9R1E9, residues 25-347: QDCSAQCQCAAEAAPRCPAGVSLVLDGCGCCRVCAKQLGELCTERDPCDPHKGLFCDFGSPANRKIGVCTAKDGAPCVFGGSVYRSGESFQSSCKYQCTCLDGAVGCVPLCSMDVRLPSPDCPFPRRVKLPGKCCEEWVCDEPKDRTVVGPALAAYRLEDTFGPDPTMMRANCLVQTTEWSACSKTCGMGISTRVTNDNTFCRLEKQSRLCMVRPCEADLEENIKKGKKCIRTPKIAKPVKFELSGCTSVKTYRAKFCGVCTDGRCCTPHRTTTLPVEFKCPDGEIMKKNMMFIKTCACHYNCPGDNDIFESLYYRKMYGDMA

No constants are given. Whether binding was seen depends on the method and setting. In cells and extracts the contact can be indirect. Some entries that bind do so weakly or less than the wild type. For some assays here: Where a sequence is shown, tags or fusion partners need not be part of it.

Assay [1] concerns the target rat Ccn2/Ctgf with FLAG epitope at the C terminus, expressed from AAV8 in mouse liver (rat) (UniProt Q9R1E9). Kind of assay: co-IP; total protein homogenates of AAV8-Ccn2/Ctgf:FLAG- or AAV8-GFP-infected mouse livers after 6-week CCl4, 1x TBS with 0.5% Triton-100; M2 antibody-conjugated agarose; immunoblot with rabbit Slit2 antibody. In general terms: Immunoblotting shows a protein as a band on a membrane.

The target of assay [2] is 3xFLAG tagged Ccn2/Ctgf (rat) (UniProt Q9R1E9). Nature of the assay: co-IP; CHO cells co-transfected with SLIT2:MYC and 3xFLAG tagged Ccn2/Ctgf or mutants; conditioned media in 1x TBS, M2 antibody-conjugated agarose 16 h; immunoblot for SLIT2 (MYC Ab in the legend).

B1: murine Slit2, endogenous in fibrotic mouse liver (protein, UniProt Q9R1B9 26-1521)
chain: QACPAQCSCSGSTVDCHGLALRSVPRNIPRNTERLDLNGNNITRITKIDFAGLRHLRVLQLMENRISTIERGAFQDLKELERLRLNRNNLQLFPELLFLGTAKLYRLDLSENQIQAIPRKAFRGAVDIKNLQLDYNQISCIEDGAFRALRDLEVLTLNNNNITRLSVASFNHMPKLRTFRLHSNNLYCDCHLAWLSDWLRQRPRVGLYTQCMGPSHLRGHNVAEVQKREFVCSGHQSFMAPSCSVLHCPAACTCSNNIVDCRGKGLTEIPTNLPETITEIRLEQNSIRVIPPGAFSPYKKLRRLDLSNNQISELAPDAFQGLRSLNSLVLYGNKITELPKSLFEGLFSLQLLLLNANKINCLRVDAFQDLHNLNLLSLYDNKLQTVAKGTFSALRAIQTMHLAQNPFICDCHLKWLADYLHTNPIETSGARCTSPRRLANKRIGQIKSKKFRCSGTEDYRSKLSGDCFADLACPEKCRCEGTTVDCSNQRLNKIPDHIPQYTAELRLNNNEFTVLEATGIFKKLPQLRKINFSNNKITDIEEGAFEGASGVNEILLTSNRLENVQHKMFKGLESLKTLMLRSNRISCVGNDSFIGLGSVRLLSLYDNQITTVAPGAFDSLHSLSTLNLLANPFNCNCHLAWLGEWLRRKRIVTGNPRCQKPYFLKEIPIQDVAIQDFTCDDGNDDNSCSPLSRCPSECTCLDTVVRCSNKGLKVLPKGIPKDVTELYLDGNQFTLVPKELSNYKHLTLIDLSNNRISTLSNQSFSNMTQLLTLILSYNRLRCIPPRTFDGLKSLRLLSLHGNDISVVPEGAFNDLSALSHLAIGANPLYCDCNMQWLSDWVKSEYKEPGIARCAGPGEMADKLLLTTPSKKFTCQGPVDITIQAKCNPCLSNPCKNDGTCNNDPVDFYRCTCPYGFKGQDCDVPIHACISNPCKHGGTCHLKEGENAGFWCTCADGFEGENCEVNIDDCEDNDCENNSTCVDGINNYTCLCPPEYTGELCEEKLDFCAQDLNPCQHDSKCILTPKGFKCDCTPGYIGEHCDIDFDDCQDNKCKNGAHCTDAVNGYTCVCPEGYSGLFCEFSPPMVLPRTSPCDNFDCQNGAQCIIRINEPICQCLPGYLGEKCEKLVSVNFVNKESYLQIPSAKVRPQTNITLQIATDEDSGILLYKGDKDHIAVELYRGRVRASYDTGSHPASAIYSVETINDGNFHIVELLTLDSSLSLSVDGGSPKVITNLSKQSTLNFDSPLYVGGMPGKNNVASLRQAPGQNGTSFHGCIRNLYINSELQDFRKMPMQTGILPGCEPCHKKVCAHGMCQPSSQSGFTCECEEGWMGPLCDQRTNDPCLGNKCVHGTCLPINAFSYSCKCLEGHGGVLCDEEEDLFNPCQMIKCKHGKCRLSGVGQPYCECNSGFTGDSCDREISCRGERIRDYYQKQQGYAACQTTKKVSRLECRGGCAGGQCCGPLRSKRRKYSFECTDGSSFVDEVEKVVKCGCARCAS
For B1, the binding result in assay [1] is “binds”.

B2: full-length human SLIT2 with MYC epitope (protein, UniProt O94813 31-1529)
chain: QCSCSGSTVDCHGLALRSVPRNIPRNTERLDLNGNNITRITKTDFAGLRHLRVLQLMENKISTIERGAFQDLKELERLRLNRNHLQLFPELLFLGTAKLYRLDLSENQIQAIPRKAFRGAVDIKNLQLDYNQISCIEDGAFRALRDLEVLTLNNNNITRLSVASFNHMPKLRTFRLHSNNLYCDCHLAWLSDWLRQRPRVGLYTQCMGPSHLRGHNVAEVQKREFVCSGHQSFMAPSCSVLHCPAACTCSNNIVDCRGKGLTEIPTNLPETITEIRLEQNTIKVIPPGAFSPYKKLRRIDLSNNQISELAPDAFQGLRSLNSLVLYGNKITELPKSLFEGLFSLQLLLLNANKINCLRVDAFQDLHNLNLLSLYDNKLQTIAKGTFSPLRAIQTMHLAQNPFICDCHLKWLADYLHTNPIETSGARCTSPRRLANKRIGQIKSKKFRCSAKEQYFIPGTEDYRSKLSGDCFADLACPEKCRCEGTTVDCSNQKLNKIPEHIPQYTAELRLNNNEFTVLEATGIFKKLPQLRKINFSNNKITDIEEGAFEGASGVNEILLTSNRLENVQHKMFKGLESLKTLMLRSNRITCVGNDSFIGLSSVRLLSLYDNQITTVAPGAFDTLHSLSTLNLLANPFNCNCYLAWLGEWLRKKRIVTGNPRCQKPYFLKEIPIQDVAIQDFTCDDGNDDNSCSPLSRCPTECTCLDTVVRCSNKGLKVLPKGIPRDVTELYLDGNQFTLVPKELSNYKHLTLIDLSNNRISTLSNQSFSNMTQLLTLILSYNRLRCIPPRTFDGLKSLRLLSLHGNDISVVPEGAFNDLSALSHLAIGANPLYCDCNMQWLSDWVKSEYKEPGIARCAGPGEMADKLLLTTPSKKFTCQGPVDVNILAKCNPCLSNPCKNDGTCNSDPVDFYRCTCPYGFKGQDCDVPIHACISNPCKHGGTCHLKEGEEDGFWCICADGFEGENCEVNVDDCEDNDCENNSTCVDGINNYTCLCPPEYTGELCEEKLDFCAQDLNPCQHDSKCILTPKGFKCDCTPGYVGEHCDIDFDDCQDNKCKNGAHCTDAVNGYTCICPEGYSGLFCEFSPPMVLPRTSPCDNFDCQNGAQCIVRINEPICQCLPGYQGEKCEKLVSVNFINKESYLQIPSAKVRPQTNITLQIATDEDSGILLYKGDKDHIAVELYRGRVRASYDTGSHPASAIYSVETINDGNFHIVELLALDQSLSLSVDGGNPKIITNLSKQSTLNFDSPLYVGGMPGKSNVASLRQAPGQNGTSFHGCIRNLYINSELQDFQKVPMQTGILPGCEPCHKKVCAHGTCQPSSQAGFTCECQEGWMGPLCDQRTNDPCLGNKCVHGTCLPINAFSYSCKCLEGHGGVLCDEEEDLFNPCQAIKCKHGKCRLSGLGQPYCECSSGYTGDSCDREISCRGERIRDYYQKQQGYAACQTTKKVSRLECRGGCAGGQCCGPLRSKRRKYSFECTDGSSFVDEVEKVVKCGCTRCVS
With B2, the binding result in assay [2] is “binds”.
